From PubChem BioAssay AID2685 (National Center for Advancing Translational Sciences (NCATS), 2010) come the findings set out here.

This test can be described thus: qHTS Assay for Lipid Storage Modulators in Drosophila S3 Cells.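 For cell number change: cells counted by Cell Tracker Red CMTPX staining in the red channel.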 The following applies: BODIPY lipid droplet fluorescence, 18-24 h; for cell number change: measured here: cell count max response, cells fed with added oleic acid. Summed up:
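Drosophila S3 cells got compounds at several concentrations plus oleic acid (400 uM solution). Laser-scanning cytometry with 488 nm excitation read lipid droplets at 500-530 nm and cells at 575-640 nm. Percent activity was relative to 20 uM Triacsin C.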

The mark [1] stands for this setting: measured here: lipid fluorescence (Fed channel) AC50, cells fed with added oleic acid.
The mark [2] stands for this setting: measured here: cell number channel AC50, cells fed with added oleic acid.

The structures appear in SMILES notation. The list shows a part of the results. The main result of the screen is listed elsewhere. These columns were measured beside it and carry no call. Compounds called inactive in the main read-out are mostly missing here. Potencies come from curve fits of mixed quality, noted in brackets.

As to `COc1ccc(CN2CCNC(=O)C2CC(=O)N(C)CC2CCOCC2)cc1OC` (centres undefined), the cell number change is 8.4%.

Take `CCC1C(=O)NCCN1C(=O)c1cccc(OC2CCN(S(=O)(=O)N(C)C)CC2)c1` (centres undefined): the cell number change came out at 4.29%. Further, under setting [1], the AC50 (as a rule, the concentration giving half of the maximal activity seen) is 8.2 µM [falling, partial curve].

As for `Clc1ccc(CN2CC[C@H]3C=CCc4cccc(c43)C2)cc1`, the cell number change is -40.2%. Under setting [2], the AC50 is 29.1 µM [falling, single point]. The concentration at half-maximal activity (AC50) under setting [1] was 0.146 µM [falling, single point].

With `C[C@]12CCC(=O)C=C1CC[C@@H]1[C@@H]2C(=O)C[C@@]2(C)[C@H]1CC[C@]2(O)C(=O)CO`, the cell number change came to 35.7%. For the same compound, the AC50 under setting [2] was 29.1 µM [rising, single point]. In addition, under setting [1], the AC50 was 29.1 µM [rising, single point].

On to `Cc1cc(OCc2cn3cccnc3n2)ccc1Cl`, for which the cell number change was -4.64%.

`Cc1cc(C)n2nc(SCN3C(=O)c4ccccc4C3=O)nc2n1`: the cell number change is -16.2%. In addition, under setting [2], the AC50 was 0.146 µM [rising, full curve, poor fit].

With `CCOc1cc(C(=O)N2CCN(C/C=C/c3ccccc3)CC2)cc(OCC)c1OCC`, the cell number change was 48.3%. Further, the AC50 under setting [2] is 29.1 µM [rising, single point]. Further, the AC50 under setting [1] is 0.651 µM [falling, single point].

For `COc1ccc(N2CCN(C(=S)NC(C)c3ccccc3)CC2)cc1` (centres undefined), the cell number change is 24.6%.

As to `CCC(=O)NC(=S)Nc1cccc(Cl)c1N1CCCC1`, the cell number change is 90.5%. Moreover, under setting [2], the AC50 was 16.4 µM [rising, partial curve].

As to `COc1ccc(N(C(=O)c2ccccc2OC(C)=O)C(C)C2CC2)cc1` (centres undefined), the cell number change worked out at 4.58%. In addition, the AC50 under setting [1] is 3.26 µM [rising, single point].

For the compound `N#CN(CC(N)=O)c1nc(N2CCCCC2)nc(N2CCCCC2)n1`, the cell number change is -11.1%. Moreover, the AC50 under setting [1] is 16.4 µM [falling, single point].

Turning to `Clc1ccc2[nH]c(-c3ccccc3)cc2c1`, the cell number change is -8.97%. Besides, under setting [1], the AC50 was 0.58 µM [falling, full curve, poor fit].

As for `COc1ccc2ccc3c(c2c1)N=C[C@]1(O3)N(C)c2ccccc2C1(C)C`, the cell number change was -87.6%. Moreover, the AC50 under setting [2] was 20.6 µM [falling, partial curve]. Moreover, the AC50 under setting [1] is 29.1 µM [falling, single point].

Take `CC1(c2ccc([N+](=O)[O-])cc2)CC(C)(C)N(C(=O)c2ccccc2)c2ccccc21` (centres undefined): the cell number change turned out to be 8.12%.

As for `COc1ccc(S(=O)(=O)N(C)CC(=O)NCCC2=CCCCC2)cc1C`, the AC50 under setting [1] is 6.51 µM [falling, single point].

Regarding `CCCCc1ccc(NC(=O)COc2ccc(C(=O)Nc3ccccc3OCC)cc2)cc1`, the cell number change is -33.2%. Under setting [2], the concentration at half-maximal activity (AC50) is 9.2 µM [falling, partial curve]. The AC50 under setting [1] was 0.651 µM [falling, full curve, poor fit].

With `CC(=O)Nc1ccc(S(=O)(=O)N2c3ccccc3NC(=O)CC2C)c(Cl)c1` (centres undefined), the cell number change was -11.4%. In addition, under setting [1], the AC50 is 0.92 µM [falling, full curve, poor fit].

Regarding `CC(CCc1ccccc1)NC(=O)c1ccc(Br)cc1` (centres undefined), the cell number change was 15.1%. The AC50 under setting [1] was 29.1 µM [falling, single point].

Regarding `O=C(Nc1ccc2nsnc2c1)NC1CCCCC1`, the cell number change was 21.2%. Moreover, the AC50 under setting [2] is 0.651 µM [rising, full curve, poor fit].

On to `COc1ccccc1N(/N=C1\Sc2ccccc2C1=O)C(C)=O`, for which, under setting [1], the AC50 is 18.4 µM [falling, partial curve].

Consider `C[C@@H]1CC=C[C@H]2[C@H]1C(=O)N(Cc1ccccc1)[C@H]2c1ccc(-c2ccc(N(C)C)cc2)cc1F`, for which the cell number change is -11%. For the same compound, under setting [1], the AC50 is 32.6 µM [falling, single point].

With `CC(C)(C)c1ccc(S(=O)(=O)N2CC(=O)Nc3ccccc32)cc1`, the cell number change is -66.1%. Moreover, the AC50 under setting [2] was 29.1 µM [falling, single point]. Under setting [1], the AC50 was 1.64 µM [falling, full curve, poor fit].

Regarding `COc1ccccc1CCNC(=O)C(=O)NCC1OCCCN1S(=O)(=O)c1cc(C)ccc1C` (centres undefined), the cell number change is -55.4%. Moreover, under setting [2], the concentration at half-maximal activity (AC50) is 9.2 µM [falling, partial curve]. For the same compound, under setting [1], the AC50 was 2.59 µM [falling, partial curve, poor fit].

For the compound `CCOc1ccc(N2CC(C(=O)N3CCCCC3)CC2=O)cc1` (centres undefined), the cell number change was found to be 9.57%.

Turning to `Cc1c(Cc2ccc3c(c2)OCO3)sc(NC(=O)C(C)(C)C)c1C#N`, the cell number change was 31.7%. Besides, the AC50 under setting [2] is 5.8 µM [rising, full curve, poor fit]. Under setting [1], the AC50 is 5.8 µM [rising, full curve].

Consider `Cc1ccc(C(=O)c2ccc(C)cc2)cc1`, for which the cell number change was 38.3%. Also, under setting [2], the AC50 was 9.2 µM [rising, single point]. Besides, the AC50 under setting [1] was 2.31 µM [rising, partial curve].

`Cc1cc(C)cc(NC(=O)CNC(c2ccccc2)c2ccccc2)c1`: the cell number change is 41.9%. In addition, the AC50 under setting [1] was 13 µM [rising, partial curve].

In the case of `CC1CCC(NC(=O)c2ccc(NS(=O)(=O)c3ccc4[nH]c(=O)[nH]c4c3)cc2)CC1` (centres undefined), the cell number change was -59.1%. Moreover, the AC50 under setting [2] was 18.4 µM [falling, single point]. In addition, the AC50 under setting [1] is 29.1 µM [falling, single point].

As for `Cc1ccc(-c2csc(NC(=O)C3=NN(c4ccccc4)C(=O)CC3)n2)cc1`, the cell number change is -6.24%. In addition, the AC50 under setting [1] was 0.00411 µM [falling, full curve, poor fit].

Turning to `CC1=C(C(N)=O)C(c2sccc2C)n2nnnc2N1` (centres undefined), the cell number change is -9.48%.

As to `Cc1ccc2c(c1)C(c1ccccc1)N(C(=O)c1cccc([N+](=O)[O-])c1)CC(=O)N2` (centres undefined), the cell number change turned out to be 12.9%. Also, the AC50 under setting [1] is 0.231 µM [rising, full curve, poor fit].

On to `Cn1c2c(c(=O)n(C)c1=O)C(c1ccccc1F)C(C#N)=C(N)O2` (centres undefined), for which the AC50 under setting [1] is 29.1 µM [rising, single point].

Consider `COc1ccccc1C(=O)NCC(=O)N1CCN(c2ncccn2)CC1`, for which the cell number change is -56.7%. The AC50 under setting [2] was 23.1 µM [falling, single point]. The AC50 under setting [1] was 18.4 µM [falling, single point].

Consider `CCSc1nnc(NC(=O)C2C3C=CC(C3)C2C(=O)O)s1` (centres undefined), for which the cell number change was -56.2%. In addition, the AC50 under setting [2] is 0.651 µM [falling, full curve]. For the same compound, the AC50 under setting [1] is 1.84 µM [falling, partial curve].

As to `O=C(CCSc1nnc(-c2ccco2)o1)Nc1ccc(F)cc1`, the cell number change amounted to 26.8%. In addition, under setting [2], the AC50 is 0.00461 µM [rising, full curve, poor fit].

For the compound `C=CCNC(=S)N/N=C/c1ccc(-c2cccc([N+](=O)[O-])c2)o1`, the cell number change is -10.6%.
